Data: paper PMC10789772
These are yes or no findings as the source states them, for the method shown. In cells and extracts the contact can be indirect. Some binding calls cover weakened binding; strength is not graded here.

Chains of the proteins cited; added tags and fusions are not shown.
UniProt Q13838: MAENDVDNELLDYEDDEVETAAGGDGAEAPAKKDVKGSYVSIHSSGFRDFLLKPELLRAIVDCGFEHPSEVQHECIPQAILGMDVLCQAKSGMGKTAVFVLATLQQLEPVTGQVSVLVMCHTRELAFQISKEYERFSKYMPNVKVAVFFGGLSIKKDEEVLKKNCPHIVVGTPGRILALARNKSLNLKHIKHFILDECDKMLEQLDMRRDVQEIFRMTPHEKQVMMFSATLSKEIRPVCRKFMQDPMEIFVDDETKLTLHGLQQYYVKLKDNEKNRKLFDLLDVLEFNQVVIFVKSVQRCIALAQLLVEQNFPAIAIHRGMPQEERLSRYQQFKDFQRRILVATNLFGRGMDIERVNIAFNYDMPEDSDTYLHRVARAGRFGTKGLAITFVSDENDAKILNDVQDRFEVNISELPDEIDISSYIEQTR

Experiments:
3×FLAG-UAP56 (human) [1] = target: 3×FLAG-UAP56 (human) (UniProt Q13838); experiment: co-IP; FLAG immunoprecipitation from nuclear extract in the presence of ADP
3×FLAG-UAP56 (human) [2] = target: 3×FLAG-UAP56 (human) (UniProt Q13838); experiment: co-IP; FLAG immunoprecipitation from nuclear extract in the presence of AMP-PNP (also with excess AMP-PNP for URH49)
3×FLAG-UAP56 (human) [3] = target: 3×FLAG-UAP56 (human) (UniProt Q13838); experiment: co-IP; as a1, with ATP (500 μM), MgCl2 (3.2 mM) and creatine phosphate (20 mM) added to the nuclear extract, 30 min at 30 °C; immunoblot

Measured: binding

B1: CIP29 (protein, UniProt P82979 1-210)
chain: MATETVELHKLKLAELKQECLARGLETKGIKQDLIHRLQAYLEEHAEEEANEEDVLGDETEEEETKPIELPVKEEEPPEKTVDVAAEKKVVKITSEIPQTERMQKRAERFNVPVSLESKKAARAARFGISSVPTKGLSSDNKPMVNLDKLKERAQRFGLNVSSISRKSEDDEKLKKRKERFGIVTSSAGTGTTEDTEAKKRKRAERFGIA
binds: all assays above
